The target in assay [1] is T1, CsgA_(21–42) (CsgG-recognition sequence) (E. coli).
T1 sequence (peptide): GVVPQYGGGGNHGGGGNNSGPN
In words: SPR; BIAcore T200; CsgA peptides immobilised on a CM7 chip by EDC/NHS coupling; DnaK 50–1000 nM as analyte, single-cycle kinetics; 25 °C; HBS-DM buffer (10 mM HEPES pH 7.4, 150 mM NaCl, 5 mM MgCl2, 1% dimethylsulfoxide); 30 μL min^−1; fit with a 1:1 binding mode; both purified.

Chains of the proteins cited; added tags and fusions are not shown.
UniProt P0A6Y8: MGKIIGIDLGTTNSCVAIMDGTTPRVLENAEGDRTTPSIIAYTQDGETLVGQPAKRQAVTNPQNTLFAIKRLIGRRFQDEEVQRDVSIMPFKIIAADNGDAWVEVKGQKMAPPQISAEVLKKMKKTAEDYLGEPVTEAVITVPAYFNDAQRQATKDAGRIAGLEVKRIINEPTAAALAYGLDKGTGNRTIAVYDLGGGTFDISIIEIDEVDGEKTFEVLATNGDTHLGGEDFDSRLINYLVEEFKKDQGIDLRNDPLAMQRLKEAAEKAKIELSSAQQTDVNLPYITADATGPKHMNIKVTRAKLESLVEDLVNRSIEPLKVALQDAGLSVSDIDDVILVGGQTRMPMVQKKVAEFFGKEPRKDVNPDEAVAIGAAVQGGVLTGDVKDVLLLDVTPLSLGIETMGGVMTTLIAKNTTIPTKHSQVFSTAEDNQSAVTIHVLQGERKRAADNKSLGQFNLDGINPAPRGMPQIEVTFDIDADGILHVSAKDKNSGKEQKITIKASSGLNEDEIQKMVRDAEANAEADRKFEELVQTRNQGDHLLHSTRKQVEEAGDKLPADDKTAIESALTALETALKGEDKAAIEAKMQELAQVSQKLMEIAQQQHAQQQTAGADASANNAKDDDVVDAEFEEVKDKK

Assay [2] addresses PhoA_(2–21) (PhoA signal peptide) [phosphatase: P00634]. In words: peptide or protein array; CelluSpot array of cellulose-bound peptides on glass slides (8-residue peptides overlapping by seven); 50 nM His-DnaK in DB buffer (25 mM Tris-HCl pH 7.5, 150 mM NaCl, 10 mM KCl, 0.05% Tween 20, 5% sucrose) overnight at 4 °C; detected with HRP-conjugated anti-His antibody; both purified.

No constants are given. Whether binding was seen depends on the method and setting. Some results given as binding are weak or reduced against the parent protein; the word gives no strength.

In the case of “N-terminal His-tagged DnaK (His-DnaK) (from UniProt P0A6Y8 1-638)”, the binding result is recorded as “no binding (tested: 1000 nM (DnaK 50–1000 nM))” in assay [1] and “binds” in assay [2].

For the origin of these results see paper PMC6123696.
